The list shows a part of the results. Shown are side measurements of this screen, not its main read-out; they come without a call. Compounds called inactive in the main read-out are mostly missing here. Words in brackets tell the shape of the fitted curve; partial curves, single points and poor fits give uncertain potencies.
Experiment: qHTS Assay for Lipid Storage Modulators in Drosophila S3 Cells;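 for cell number change: cells counted by Cell Tracker Red CMTPX staining in the red channel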
Settings: BODIPY lipid droplet fluorescence, 18-24 h; for cell number change: measured here: cell count max response, cells fed with added oleic acid
Summary of the method: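 Laser-scanning cytometry quantifies lipid droplet accumulation (500–530 nm total intensity; droplet/cell object ratio) in oleic acid-fed (400 uM added) Drosophila S3 cells treated with a concentration series. 20 uM Triacsin C defined 100% inhibition.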

[1] = measured here: cell number channel AC50, cells fed with added oleic acid
[2] = measured here: lipid fluorescence (Fed channel) AC50, cells fed with added oleic acid

SMILES	cell number change	AC50 [1]	AC50 [2]
CC(C)CCN1C(=O)c2ccc(C(=O)Nc3cccc(S(N)(=O)=O)c3)cc2C1=O	-15.7%	0.184 µM [falling, partial curve]	0.058 µM [falling, full curve]
Cc1cc(NCc2ccccc2)nc(-c2ccccc2O)n1	-34.8%	14.6 µM [falling, partial curve]	13 µM [falling, partial curve, poor fit]
CC1(C)C(=O)OC(c2cccs2)C2(CCCCC2)C1=O (stereo not given)	-5.47%		
CN(C)S(=O)(=O)c1ccc(N2CCCC2=O)c([N+](=O)[O-])c1	-5.75%	6.51 µM [rising, single point]	5.8 µM [falling, full curve]
CCOc1ccc2nc(SCC(=O)Nc3ncccn3)[nH]c2c1	40.6%	7.31 µM [rising, partial curve, poor fit]	32.6 µM [falling, partial curve]
Cc1cccc(-n2ncc3c2CCCC3NC(=O)C2=CC(=O)CC(C)(C)O2)c1C (stereo not given)	-52%	5.17 µM [falling, full curve]	0.731 µM [falling, full curve]
Cc1ccc(C)c(NS(=O)(=O)c2ccc3[nH]c(=O)[nH]c3c2)c1	34%	4.11 µM [rising, full curve, poor fit]	2.91 µM [rising, full curve]
Cc1cnc(C(=O)Nc2ccc(C(=O)N3CCCCC3)cc2)cn1	16.8%		5.8 µM [rising, full curve, poor fit]
C[C@@H](C(=O)NCCc1c[nH]c2ccccc12)[C@H]1C[C@]1(C)[C@H](NC(=O)OCc1ccccc1)c1ccccc1	-8.76%		0.651 µM [rising, full curve, poor fit]
CCN1CCN(c2ccc(S(=O)(=O)N3CCCCC3)cc2NC(=O)c2ccc([N+](=O)[O-])s2)CC1	-28.1%	4.61 µM [falling, full curve, poor fit]	3.66 µM [falling, partial curve]
CC(NC(=O)CSc1nnc(-c2cccnc2)n1N)c1ccccc1 (stereo not given)	-13.4%		0.398 µM [rising, full curve]
COC(=O)c1[nH]c2cccc(OC)c2c1NC(=O)CN1CCC(C(N)=O)(N2CCCCC2)CC1	-59.3%	9.2 µM [falling, partial curve, poor fit]	23.1 µM [falling, partial curve, poor fit]
CCOc1ccc(NC(=O)Cn2nnc3c(cnn3-c3ccc(F)cc3)c2=O)cc1	-6.5%		16.4 µM [falling, partial curve]
NC(=S)Nc1cccc2cc3ccccc3cc12	17.9%		18.4 µM [rising, single point]
CC1CCCN(CCCNS(=O)(=O)c2ccc3c(c2)CCN3C(=O)C2CC2)C1 (stereo not given)	16.9%		29.1 µM [rising, partial curve, poor fit]
C=C(C)CN(CC)C(=O)CSc1nc(O)cc(=O)n1C1CCCC1	53.6%		
Cc1cc(=O)c2cccc(Br)c2[nH]1	16.2%		32.6 µM [rising, partial curve, poor fit]
CC(=O)Nc1ccc(S(=O)(=O)N2CCc3ccccc3C2CC(=O)O)cc1 (stereo not given)	19.2%		

Reformatted: results already given.
NC(=S)Nc1cccc2cc3ccccc3cc12
  cell number change: 17.9%; AC50 [2]: 18.4 µM [rising, single point]
C=C(C)CN(CC)C(=O)CSc1nc(O)cc(=O)n1C1CCCC1
  cell number change: 53.6%

The results go on:

SMILES	cell number change	AC50 [1]	AC50 [2]
CC1(C)CC2CC(C)(CN2S(=O)(=O)c2cccc(C(=O)OCC(=O)NC(N)=O)c2)C1 (stereo not given)	9%		6.51 µM [rising, single point]
COc1ccc(NC(=S)N2CCc3ccccc3C2)cc1		0.58 µM [rising, single point]	0.58 µM [rising, single point]
CCOCCCn1c(=S)[nH]c2cc(C(=O)N3CCN(c4ccccc4)CC3)ccc2c1=O	-17.6%		
CCOc1ccc(CCNC(=O)C2CCC(=O)N2CCc2ccccc2)cc1OCC (stereo not given)	30.7%	29.1 µM [rising, single point]	16.4 µM [rising, partial curve]
CCCCc1ccc(C2C3=C(CC(C)(C)CC3=O)NC3=C2C(=O)c2ccccc23)cc1 (stereo not given)	-31%	29.1 µM [falling, single point]	
CC(C)c1ccc(NC(=O)C(c2ccccc2)N2CCN(C=O)CC2)cc1 (stereo not given)	-2.97%		6.51 µM [falling, single point]
COc1ccccc1/C=C1\SC(=S)N(CCC(=O)Nc2cccc(O)c2)C1=O	-19.9%		0.58 µM [rising, single point]
Cc1ccc(CNC(=O)COC(=O)CCCOc2ccc(Cl)cc2Cl)cc1	0.994%		0.206 µM [falling, full curve, poor fit]
N#CCOC(=O)c1c2c(nc3ccccc13)CCC2	49.1%	0.461 µM [rising, full curve, poor fit]	0.461 µM [rising, full curve]
O=C(Nc1ncc(Cc2ccccc2)s1)C1CCCO1 (stereo not given)	-21.6%		29.1 µM [falling, single point]
COc1cc(/C=N\NC(=O)c2cccnc2)ccc1OC(=O)c1ccccc1Cl	-19%		1.46 µM [falling, partial curve]
Cc1cc(NC(=O)CCC(=O)N(CCC(C)C)C(C(=O)NC2CCCC2)c2ccccc2C)no1 (stereo not given)	9.46%		0.13 µM [rising, full curve]
COc1ccc(N2CCN(C(=O)c3oc4c(c3C)C(=O)CCC4)CC2)cc1	11.8%		
CC(=O)Nc1ccc(Oc2ccc(NC(C)=O)c(NC(C)=O)c2)cc1	119%		29.1 µM [rising, single point]
COc1ccc(CC(=O)N2N=C(C)CC2(O)C(F)(F)F)cc1 (stereo not given)	4.6%		29.1 µM [rising, single point]
CN(C)C=NC(=O)c1cccn1-c1ncc(C(F)(F)F)cc1Cl	-6.65%		
CC(C)C(c1nnnn1Cc1ccccc1)N1CCC(C(N)=O)CC1 (stereo not given)	-30.9%	2.31 µM [falling, partial curve]	2.91 µM [falling, full curve, poor fit]
